Experimental data taken from the supplement of paper PMC10849652.
This is one part of the list.

By UniProt entry, the sequences of proteins in these tests, tags left out. Where a name states a change or a piece, a line headed by the entry shows the natural chain unless it says otherwise.
UniProt Q9UBP6: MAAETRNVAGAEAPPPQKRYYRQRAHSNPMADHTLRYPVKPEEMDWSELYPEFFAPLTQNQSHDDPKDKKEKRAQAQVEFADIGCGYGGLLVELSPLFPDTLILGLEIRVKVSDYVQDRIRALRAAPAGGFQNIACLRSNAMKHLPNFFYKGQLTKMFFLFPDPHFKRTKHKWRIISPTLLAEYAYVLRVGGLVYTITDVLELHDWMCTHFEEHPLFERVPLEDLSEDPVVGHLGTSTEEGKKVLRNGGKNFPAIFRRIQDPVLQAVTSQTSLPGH
UniProt Q7L2J0: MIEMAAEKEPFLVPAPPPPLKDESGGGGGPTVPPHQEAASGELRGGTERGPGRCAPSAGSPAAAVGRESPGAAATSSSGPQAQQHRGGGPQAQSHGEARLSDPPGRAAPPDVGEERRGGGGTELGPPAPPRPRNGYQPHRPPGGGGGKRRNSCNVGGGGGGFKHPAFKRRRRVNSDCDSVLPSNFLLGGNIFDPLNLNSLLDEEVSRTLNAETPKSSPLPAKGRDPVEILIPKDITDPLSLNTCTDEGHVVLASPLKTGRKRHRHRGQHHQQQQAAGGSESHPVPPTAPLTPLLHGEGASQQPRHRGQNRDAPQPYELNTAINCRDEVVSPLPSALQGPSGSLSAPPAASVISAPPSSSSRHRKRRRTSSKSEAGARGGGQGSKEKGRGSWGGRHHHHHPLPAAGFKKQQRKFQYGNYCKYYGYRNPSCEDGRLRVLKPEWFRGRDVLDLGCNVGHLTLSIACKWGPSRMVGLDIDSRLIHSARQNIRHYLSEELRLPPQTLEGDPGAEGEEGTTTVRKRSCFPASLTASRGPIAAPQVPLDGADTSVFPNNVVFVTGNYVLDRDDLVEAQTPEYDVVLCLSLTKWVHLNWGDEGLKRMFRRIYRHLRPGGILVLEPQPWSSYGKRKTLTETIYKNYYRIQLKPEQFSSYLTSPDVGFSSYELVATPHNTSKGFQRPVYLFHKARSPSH
UniProt Q14566: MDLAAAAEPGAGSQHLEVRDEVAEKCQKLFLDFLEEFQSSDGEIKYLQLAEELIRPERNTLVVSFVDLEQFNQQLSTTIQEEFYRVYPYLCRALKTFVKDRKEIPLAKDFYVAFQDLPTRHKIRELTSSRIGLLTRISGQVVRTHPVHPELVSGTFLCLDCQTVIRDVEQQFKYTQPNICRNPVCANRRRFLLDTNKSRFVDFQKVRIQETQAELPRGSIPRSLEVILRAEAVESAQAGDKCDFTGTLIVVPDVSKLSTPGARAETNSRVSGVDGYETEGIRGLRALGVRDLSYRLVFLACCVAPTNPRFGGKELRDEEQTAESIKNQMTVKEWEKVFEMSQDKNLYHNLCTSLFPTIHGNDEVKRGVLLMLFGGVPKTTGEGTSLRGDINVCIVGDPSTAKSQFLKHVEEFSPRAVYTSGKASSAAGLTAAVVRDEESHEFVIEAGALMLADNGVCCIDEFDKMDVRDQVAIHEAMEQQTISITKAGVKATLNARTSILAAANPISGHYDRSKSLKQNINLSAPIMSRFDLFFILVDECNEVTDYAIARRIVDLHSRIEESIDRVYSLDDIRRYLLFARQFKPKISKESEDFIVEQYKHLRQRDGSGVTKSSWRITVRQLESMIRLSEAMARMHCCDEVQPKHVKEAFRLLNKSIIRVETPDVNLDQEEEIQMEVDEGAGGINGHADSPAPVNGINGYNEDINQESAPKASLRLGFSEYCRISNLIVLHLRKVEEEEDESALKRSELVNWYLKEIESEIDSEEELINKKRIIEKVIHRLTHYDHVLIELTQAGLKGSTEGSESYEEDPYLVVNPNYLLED
UniProt P48163: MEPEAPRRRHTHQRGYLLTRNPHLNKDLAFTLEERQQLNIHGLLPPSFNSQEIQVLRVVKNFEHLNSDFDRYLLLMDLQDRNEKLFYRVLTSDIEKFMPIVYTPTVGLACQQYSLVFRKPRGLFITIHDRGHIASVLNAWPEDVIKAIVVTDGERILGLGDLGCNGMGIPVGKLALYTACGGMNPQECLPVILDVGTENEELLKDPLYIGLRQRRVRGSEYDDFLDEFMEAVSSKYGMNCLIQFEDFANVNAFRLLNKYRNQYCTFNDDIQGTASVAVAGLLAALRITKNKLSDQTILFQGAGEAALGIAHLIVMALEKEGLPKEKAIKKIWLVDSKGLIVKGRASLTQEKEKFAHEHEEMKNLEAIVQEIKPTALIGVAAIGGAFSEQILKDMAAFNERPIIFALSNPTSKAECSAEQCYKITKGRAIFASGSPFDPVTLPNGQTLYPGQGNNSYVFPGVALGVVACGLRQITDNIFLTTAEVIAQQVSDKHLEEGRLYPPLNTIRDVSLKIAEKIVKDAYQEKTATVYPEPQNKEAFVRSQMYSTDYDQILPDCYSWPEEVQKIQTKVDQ
UniProt Q10469: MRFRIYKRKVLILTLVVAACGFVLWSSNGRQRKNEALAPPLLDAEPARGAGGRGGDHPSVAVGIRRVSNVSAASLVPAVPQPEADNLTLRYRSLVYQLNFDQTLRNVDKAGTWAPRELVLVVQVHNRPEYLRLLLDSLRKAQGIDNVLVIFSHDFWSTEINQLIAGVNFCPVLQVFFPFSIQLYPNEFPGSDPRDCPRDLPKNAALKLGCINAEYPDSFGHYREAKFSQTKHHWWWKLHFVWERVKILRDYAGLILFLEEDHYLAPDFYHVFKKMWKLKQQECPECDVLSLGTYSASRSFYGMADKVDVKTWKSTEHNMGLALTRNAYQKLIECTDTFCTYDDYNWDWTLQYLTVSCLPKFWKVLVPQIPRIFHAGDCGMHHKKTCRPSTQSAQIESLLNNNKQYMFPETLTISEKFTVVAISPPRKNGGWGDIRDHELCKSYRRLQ
UniProt O95140: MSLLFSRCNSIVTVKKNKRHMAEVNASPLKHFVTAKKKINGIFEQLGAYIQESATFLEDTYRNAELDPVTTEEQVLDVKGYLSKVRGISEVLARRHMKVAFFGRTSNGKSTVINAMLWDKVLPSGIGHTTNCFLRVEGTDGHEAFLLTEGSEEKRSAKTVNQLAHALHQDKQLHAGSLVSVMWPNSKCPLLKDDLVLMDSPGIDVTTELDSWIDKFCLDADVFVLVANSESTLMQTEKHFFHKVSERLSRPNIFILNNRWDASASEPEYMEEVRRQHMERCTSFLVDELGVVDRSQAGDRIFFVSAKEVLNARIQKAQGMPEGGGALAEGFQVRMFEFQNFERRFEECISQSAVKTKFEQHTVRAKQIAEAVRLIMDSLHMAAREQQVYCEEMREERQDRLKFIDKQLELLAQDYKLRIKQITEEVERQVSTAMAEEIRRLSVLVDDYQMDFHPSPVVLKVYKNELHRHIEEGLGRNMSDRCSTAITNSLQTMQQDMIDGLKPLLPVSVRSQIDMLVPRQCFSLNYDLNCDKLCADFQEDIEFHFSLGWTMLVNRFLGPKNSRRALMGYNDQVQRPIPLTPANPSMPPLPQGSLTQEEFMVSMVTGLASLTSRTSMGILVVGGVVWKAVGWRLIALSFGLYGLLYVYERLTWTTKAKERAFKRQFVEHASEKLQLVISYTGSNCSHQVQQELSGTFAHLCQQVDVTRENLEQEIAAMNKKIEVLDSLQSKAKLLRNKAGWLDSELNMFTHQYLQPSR
UniProt Q9ULC4: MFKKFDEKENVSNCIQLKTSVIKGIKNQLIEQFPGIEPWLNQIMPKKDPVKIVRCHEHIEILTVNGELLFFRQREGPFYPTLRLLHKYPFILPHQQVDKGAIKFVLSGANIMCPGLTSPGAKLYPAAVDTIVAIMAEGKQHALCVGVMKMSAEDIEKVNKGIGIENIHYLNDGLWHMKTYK
UniProt Q9NWR8: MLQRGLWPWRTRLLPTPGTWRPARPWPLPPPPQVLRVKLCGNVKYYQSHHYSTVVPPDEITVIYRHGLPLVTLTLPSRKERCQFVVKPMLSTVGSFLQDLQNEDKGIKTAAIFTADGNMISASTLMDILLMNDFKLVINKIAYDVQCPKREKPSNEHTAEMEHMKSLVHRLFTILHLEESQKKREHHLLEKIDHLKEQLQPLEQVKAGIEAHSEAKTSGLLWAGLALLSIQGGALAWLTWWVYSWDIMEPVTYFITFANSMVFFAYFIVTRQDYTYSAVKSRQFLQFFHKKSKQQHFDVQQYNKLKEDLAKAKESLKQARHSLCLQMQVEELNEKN
UniProt O60244: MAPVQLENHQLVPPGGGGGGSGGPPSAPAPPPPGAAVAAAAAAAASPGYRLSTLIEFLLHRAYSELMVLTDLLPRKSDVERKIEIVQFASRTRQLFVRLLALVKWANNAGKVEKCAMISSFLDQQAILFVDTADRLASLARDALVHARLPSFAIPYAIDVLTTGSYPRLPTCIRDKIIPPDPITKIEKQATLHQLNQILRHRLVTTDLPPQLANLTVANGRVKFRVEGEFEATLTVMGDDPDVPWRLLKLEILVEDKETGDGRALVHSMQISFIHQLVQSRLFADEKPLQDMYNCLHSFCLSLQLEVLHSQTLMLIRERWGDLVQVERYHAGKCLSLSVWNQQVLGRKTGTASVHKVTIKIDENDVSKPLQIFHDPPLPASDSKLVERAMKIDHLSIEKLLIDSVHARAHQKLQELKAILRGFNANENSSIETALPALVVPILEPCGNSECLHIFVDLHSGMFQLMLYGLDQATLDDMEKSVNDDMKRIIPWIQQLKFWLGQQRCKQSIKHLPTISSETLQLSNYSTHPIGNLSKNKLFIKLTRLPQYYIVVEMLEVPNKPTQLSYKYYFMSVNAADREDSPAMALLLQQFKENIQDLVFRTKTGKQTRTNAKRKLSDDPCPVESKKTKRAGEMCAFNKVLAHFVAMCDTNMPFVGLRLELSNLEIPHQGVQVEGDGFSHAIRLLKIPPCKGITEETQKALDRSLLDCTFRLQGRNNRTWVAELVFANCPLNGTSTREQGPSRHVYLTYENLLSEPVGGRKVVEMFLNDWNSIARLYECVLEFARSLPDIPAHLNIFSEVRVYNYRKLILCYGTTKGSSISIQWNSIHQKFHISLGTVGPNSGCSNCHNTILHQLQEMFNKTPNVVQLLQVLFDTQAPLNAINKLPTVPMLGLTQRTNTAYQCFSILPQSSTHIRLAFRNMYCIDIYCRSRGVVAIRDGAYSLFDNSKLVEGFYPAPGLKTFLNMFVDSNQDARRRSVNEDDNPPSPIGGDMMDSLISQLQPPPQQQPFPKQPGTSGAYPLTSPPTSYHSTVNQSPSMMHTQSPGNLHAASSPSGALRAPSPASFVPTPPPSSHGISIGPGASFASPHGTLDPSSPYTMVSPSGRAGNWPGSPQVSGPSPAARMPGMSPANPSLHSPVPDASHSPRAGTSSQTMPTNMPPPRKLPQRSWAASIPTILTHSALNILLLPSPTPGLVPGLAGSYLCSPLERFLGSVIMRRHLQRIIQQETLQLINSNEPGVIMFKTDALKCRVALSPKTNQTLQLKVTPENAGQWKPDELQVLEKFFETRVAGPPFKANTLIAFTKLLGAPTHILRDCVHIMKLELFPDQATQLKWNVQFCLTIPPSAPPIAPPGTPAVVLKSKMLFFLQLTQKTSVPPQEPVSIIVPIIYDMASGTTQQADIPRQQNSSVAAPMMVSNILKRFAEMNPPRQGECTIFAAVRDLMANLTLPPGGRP
UniProt Q96GW9: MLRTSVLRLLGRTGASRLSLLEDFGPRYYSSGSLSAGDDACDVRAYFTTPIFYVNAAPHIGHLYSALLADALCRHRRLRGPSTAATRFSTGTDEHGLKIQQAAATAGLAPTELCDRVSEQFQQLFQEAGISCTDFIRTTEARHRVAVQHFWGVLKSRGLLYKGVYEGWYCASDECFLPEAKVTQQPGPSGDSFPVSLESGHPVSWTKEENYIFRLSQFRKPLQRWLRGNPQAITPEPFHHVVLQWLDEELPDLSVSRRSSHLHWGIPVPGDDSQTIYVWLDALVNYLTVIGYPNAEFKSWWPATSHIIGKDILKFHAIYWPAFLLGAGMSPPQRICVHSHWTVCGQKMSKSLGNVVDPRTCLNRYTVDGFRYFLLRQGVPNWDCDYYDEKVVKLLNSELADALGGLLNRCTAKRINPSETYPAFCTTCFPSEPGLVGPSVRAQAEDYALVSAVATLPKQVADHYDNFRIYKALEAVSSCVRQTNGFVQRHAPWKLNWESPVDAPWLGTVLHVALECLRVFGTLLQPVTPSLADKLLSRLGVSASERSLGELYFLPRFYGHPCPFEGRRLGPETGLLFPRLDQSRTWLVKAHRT
UniProt Q9BQP7: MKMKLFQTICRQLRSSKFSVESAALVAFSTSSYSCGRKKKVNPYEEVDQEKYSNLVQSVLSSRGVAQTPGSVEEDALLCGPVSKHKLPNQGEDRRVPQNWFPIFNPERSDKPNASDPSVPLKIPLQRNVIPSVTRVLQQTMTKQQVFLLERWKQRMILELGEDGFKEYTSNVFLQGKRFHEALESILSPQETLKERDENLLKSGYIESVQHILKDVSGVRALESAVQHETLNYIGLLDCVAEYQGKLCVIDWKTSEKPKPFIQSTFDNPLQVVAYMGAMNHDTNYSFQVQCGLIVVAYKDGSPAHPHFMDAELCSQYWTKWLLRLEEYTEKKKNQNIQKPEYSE

Columns and labels:
Test in all cases: log2 fold change, soluble protein after heating vs DMSO (PISA); higher = thermal stabilisation; K562 cells, 10 uM, 30 min; active = over 0.2 and 3.5 SD of the protein, either way, in both replicates (recomputed)
[1] = compound: NC(=O)Nc1cc(-c2cccc(F)c2)sc1C(=O)N[C@H]1CCCNC1
How it was run: (§1)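 Aliquots of K562 cells (2×10^6 cells/mL) treated with 10 μM compound for 30 min were heated for 3 min over 48°C-58°C. After pooling and extraction in PBS with 0.5% NP-40 at 4°C, soluble protein from a 21,000xg, 90 min spin was quantified by TMTpro 16plex LC-MS/MS with channel sums equalised. Thermal stability is expressed against control samples, from duplicates, as a log2 fold change.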

[2] = compound: NC(=O)c1cnc(N[C@@H]2CCCC[C@@H]2N)nc1Nc1cccc(-n2nccn2)c1
How it was run: as §1

[3] = compound: NC1(c2ccc(-c3nc4ccn5c(=O)[nH]nc5c4cc3-c3ccccc3)cc2)CCC1
How it was run: as §1

[4] = compound: NCC(=O)Nc1ccc(-n2nc(C(F)(F)F)cc2-c2ccc3c(ccc4ccccc43)c2)cc1
How it was run: as §1

entinostat = compound: Nc1ccccc1NC(=O)c1ccc(CNC(=O)OCc2cccnc2)cc1 [entinostat]
How it was run: as §1

vorinostat = compound: O=C(CCCCCCC(=O)Nc1ccccc1)NO [vorinostat]
How it was run: as §1

citarinostat = compound: O=C(CCCCCCNC(=O)c1cnc(N(c2ccccc2)c2ccccc2Cl)nc1)NO [citarinostat]
How it was run: as §1

silmitasertib = compound: O=C(O)c1ccc2c(c1)nc(Nc1cccc(Cl)c1)c1ccncc12 [silmitasertib]
How it was run: as §1

[5] = compound: O=C1NC(=O)C(c2cnc3ccccn23)=C1c1cn2c3c(cc(F)cc13)CN(C(=O)N1CCCCC1)CC2
How it was run: as §1

[6] = compound: c1cc(OCCN2CCCCC2)cc(-c2n[nH]c3ccc(-c4nnc[nH]4)cc23)c1
How it was run: as §1

Measured: log2 fold change

MAT1A (UniProt Q00266)
inactive: [1] 0.012 | [2] 0.044 | [3] 0.023 | [4] 0.035 | entinostat -0.021 | vorinostat -0.024 | citarinostat -0.058 | silmitasertib 0.02 | [5] -0.002 | [6] -0.009

METTL1 (UniProt Q9UBP6)
inactive: [1] -0.063 | [2] -0.011 | [3] -0.037 | [4] 0.043 | entinostat 0.006 | vorinostat -0.03 | citarinostat 0.03 | silmitasertib -0.008 | [5] -0.024 | [6] 0.012

MCM5 (UniProt P33992)
inactive: [1] 0 | [2] -0.021 | [3] -0.05 | [4] 0.054 | entinostat 0.021 | vorinostat 0.027 | citarinostat 0.055 | silmitasertib -0.018 | [5] 0.02 | [6] 0

2 successive records from above, for reference:
METTL1 (UniProt Q9UBP6)
inactive: [1] -0.063 | [2] -0.011 | [3] -0.037 | [4] 0.043 | entinostat 0.006 | vorinostat -0.03 | citarinostat 0.03 | silmitasertib -0.008 | [5] -0.024 | [6] 0.012

MCM5 (UniProt P33992)
inactive: [1] 0 | [2] -0.021 | [3] -0.05 | [4] 0.054 | entinostat 0.021 | vorinostat 0.027 | citarinostat 0.055 | silmitasertib -0.018 | [5] 0.02 | [6] 0

(continued)

MECR (UniProt Q9BV79)
inactive: [1] -0.004 | [2] 0.02 | [3] 0.012 | [4] -0.052 | entinostat -0.04 | vorinostat -0.017 | citarinostat 0.046 | silmitasertib 0.017 | [5] -0.025 | [6] -0.043

MED15 (UniProt Q96RN5)
inactive: [1] 0.046 | [2] -0.089 | [3] -0.013 | [4] -0.055 | entinostat -0.009 | vorinostat 0.012 | citarinostat 0.011 | silmitasertib 0.009 | [5] -0.017 | [6] -0.073

MAZ isoform 2 (UniProt P56270)
inactive: [1] 0.097 | [2] 0.177 | [3] 0.106 | [4] -0.001 | entinostat 0.003 | vorinostat -0.023 | citarinostat -0.043 | silmitasertib 0.013 | [5] 0.076 | [6] -0.112

MCL1 (UniProt Q07820)
inactive: [1] -0.074 | [2] -0.33 | [3] -0.093 | [4] -0.039 | entinostat 0.072 | vorinostat 0.011 | citarinostat -0.079 | silmitasertib 0.034 | [5] -0.112 | [6] 0.142

MCM4 (UniProt P33991)
inactive: [1] 0.036 | [2] -0.078 | [3] -0.102 | [4] -0.008 | entinostat 0.006 | vorinostat 0.031 | citarinostat 0.038 | silmitasertib -0.026 | [5] -0.015 | [6] -0.012

METTL18 (UniProt O95568)
inactive: [1] -0.028 | [2] 0.008 | [3] -0.034 | [4] 0.023 | entinostat -0.02 | vorinostat 0.041 | citarinostat -0.046 | silmitasertib 0.03 | [5] 0 | [6] -0.016

MEPCE (UniProt Q7L2J0)
inactive: [1] -0.085 | [2] -0.152 | [3] -0.127 | [4] -0.004 | entinostat 0.063 | vorinostat 0.107 | citarinostat 0.005 | silmitasertib 0.02 | [5] -0.019 | [6] 0.026

MCEE (UniProt Q96PE7)
inactive: [1] 0.017 | [2] -0.014 | [3] -0.005 | [4] -0.052 | entinostat 0.048 | vorinostat -0.034 | citarinostat 0.056 | silmitasertib 0.021 | [5] -0.05 | [6] -0.04

MBLAC2 (UniProt Q68D91)
inactive: [1] 0.007 | [2] -0.003 | [3] 0.01 | [4] -0.048 | entinostat -0.041 | vorinostat 0.03 | citarinostat 0.023 | silmitasertib 0.002 | [5] -0.034 | [6] -0.031

MCM6 (UniProt Q14566)
inactive: [1] -0.038 | [2] -0.053 | [3] -0.075 | [4] -0.032 | entinostat 0 | vorinostat 0.016 | citarinostat 0.036 | silmitasertib 0.006 | [5] -0.05 | [6] -0.022

ME1 (UniProt P48163)
inactive: [1] 0.008 | [2] 0.009 | [3] -0.024 | [4] 0.025 | entinostat 0.02 | vorinostat -0.021 | citarinostat 0 | silmitasertib -0.009 | [5] -0.039 | [6] -0.005

MCM7 (UniProt P33993)
inactive: [1] 0.009 | [2] -0.015 | [3] -0.107 | [4] -0.006 | entinostat 0.02 | vorinostat 0.029 | citarinostat 0.016 | silmitasertib -0.013 | [5] -0.006 | [6] -0.015

MGAT5 (UniProt Q09328)
inactive: [1] 0.005 | [2] 0.052 | [3] -0.006 | [4] 0.096 | entinostat 0.019 | vorinostat -0.065 | citarinostat 0.015 | silmitasertib 0.024 | [5] 0.03 | [6] 0.005

MGAT2 (UniProt Q10469)
inactive: [1] 0.035 | [2] -0.038 | [3] -0.007 | [4] -0.026 | entinostat -0.009 | vorinostat 0.004 | citarinostat -0.023 | silmitasertib -0.024 | [5] 0.012 | [6] -0.034

MAX (UniProt P61244)
inactive: [1] -0.013 | [2] 0.059 | [3] 0.031 | [4] 0.158 | entinostat -0.047 | vorinostat -0.188 | citarinostat -0.124 | silmitasertib -0.131 | [5] -0.049 | [6] 0.017

METTL14 (UniProt Q9HCE5)
inactive: [1] -0.029 | [2] -0.002 | [3] -0.061 | [4] 0.023 | entinostat -0.003 | vorinostat 0.002 | citarinostat 0.032 | silmitasertib 0.02 | [5] -0.083 | [6] -0.047

MED24 (UniProt O75448)
inactive: [1] 0.089 | [2] -0.088 | [3] -0.016 | [4] -0.037 | entinostat 0.012 | vorinostat 0.056 | citarinostat -0.007 | silmitasertib 0.069 | [5] 0.025 | [6] -0.076

MFN2 (UniProt O95140)
inactive: [1] -0.081 | [2] -0.088 | [3] -0.104 | [4] -0.168 | entinostat 0.014 | vorinostat -0.019 | citarinostat -0.021 | silmitasertib -0.024 | [5] -0.019 | [6] -0.008

MCTS1 isoform 3 (UniProt Q9ULC4)
inactive: [1] 0.006 | [2] 0.03 | [3] 0.049 | [4] 0.02 | entinostat -0.007 | vorinostat 0.011 | citarinostat 0.034 | silmitasertib 0.003 | [5] -0.022 | [6] -0.017

MCUB (UniProt Q9NWR8)
inactive: [1] -0.057 | [2] -0.078 | [3] 0.1 | [4] -0.02 | entinostat 0.052 | vorinostat 0.152 | citarinostat -0.047 | silmitasertib -0.092 | [5] -0.155 | [6] 0.003

MED14 (UniProt O60244)
inactive: [1] 0.041 | [2] -0.129 | [3] 0.059 | [4] -0.051 | entinostat -0.075 | vorinostat 0.148 | citarinostat 0.088 | silmitasertib 0.001 | [5] 0.092 | [6] -0.502

MARS2 (UniProt Q96GW9)
inactive: [1] 0.013 | [2] 0.009 | [3] -0.012 | [4] 0.041 | entinostat -0.01 | vorinostat 0.033 | citarinostat 0.041 | silmitasertib -0.028 | [5] -0.044 | [6] -0.02

MIB1 (UniProt Q86YT6)
inactive: [1] -0.003 | [2] -0.019 | [3] 0.005 | [4] 0.005 | entinostat -0.046 | vorinostat 0.221 | citarinostat 0.006 | silmitasertib 0.06 | [5] -0.006 | [6] -0.037

MEA1 (UniProt Q16626)
inactive: [1] -0.003 | [2] 0.097 | [3] -0.113 | [4] 0.026 | entinostat 0.004 | vorinostat -0.095 | citarinostat 0.112 | silmitasertib 0.031 | [5] -0.1 | [6] 0.031

MAST4 (UniProt O15021)
inactive: [1] -0.217 | [2] -0.038 | [3] -0.298 | [4] -0.115 | entinostat 0.085 | vorinostat 0.045 | citarinostat 0.135 | silmitasertib -0.053 | [5] 0.051 | [6] -0.151

MGME1 (UniProt Q9BQP7)
inactive: [1] -0.068 | [2] -0.007 | [3] -0.03 | [4] 0.008 | entinostat -0.049 | vorinostat 0.029 | citarinostat 0.035 | silmitasertib -0.002 | [5] -0.053 | [6] -0.014

MECP2 isoform 2 (UniProt P51608)
inactive: [1] 0.046 | [2] 0.074 | [3] 0.151 | [4] 0.117 | entinostat -0.069 | vorinostat -0.059 | citarinostat -0.103 | silmitasertib 0.236 | [5] 0.188 | [6] -0.153
